According to publication PMC4366279 (PLoS ONE, 2015):
Residue numbers refer to the chain shown, from its start. These are yes or no findings as the source states them, for the method shown. Binding seen in cells or lysates may run through a third protein. Some entries that bind do so weakly or less than the wild type.

Key:
Assay in all cases: pull-down; His6-TbREL1 TNT mixture mixed with an equal volume of untagged KREPA2 TNT mixture, captured on magnetic His-tag isolation beads (Dynabeads); binding buffer 50 mM NaPO4 pH 8.0, 300 mM NaCl, 0.01% Tween 20; 20-30 min at 4°C; three washes; [35S]-methionine-labelled proteins on 10% SDS-PAGE, PhosphorImager; KREPA2-only control for background
[1] = target: T1, TbREL1 K379A (Trypanosoma brucei) (UniProt P86926)
T1 sequence (chain, [35S]-methionine labelled): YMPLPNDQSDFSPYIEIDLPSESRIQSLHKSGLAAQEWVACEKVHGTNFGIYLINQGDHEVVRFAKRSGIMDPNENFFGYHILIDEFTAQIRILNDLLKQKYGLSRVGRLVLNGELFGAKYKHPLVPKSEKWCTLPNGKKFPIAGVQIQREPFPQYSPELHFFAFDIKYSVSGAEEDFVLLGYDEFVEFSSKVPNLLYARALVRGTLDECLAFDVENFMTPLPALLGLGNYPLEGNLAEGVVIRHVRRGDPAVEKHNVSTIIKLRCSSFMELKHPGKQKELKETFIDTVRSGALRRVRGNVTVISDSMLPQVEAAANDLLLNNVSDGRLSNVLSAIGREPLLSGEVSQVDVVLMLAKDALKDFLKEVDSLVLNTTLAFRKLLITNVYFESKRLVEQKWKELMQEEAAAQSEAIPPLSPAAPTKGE

[2] = target: T2, TbREL1 K166A (Trypanosoma brucei) (UniProt P86926)
T2 sequence (chain, [35S]-methionine labelled): T1 sequence (chain, [35S]-methionine labelled) with K122A, A335K

[3] = target: T3, TbREL1 E455A (Trypanosoma brucei) (UniProt P86926)
T3 sequence (chain, [35S]-methionine labelled): T1 sequence (chain, [35S]-methionine labelled) with A335K, E411A

[4] = target: T4, TbREL1 W442A (Trypanosoma brucei) (UniProt P86926)
T4 sequence (chain, [35S]-methionine labelled): T1 sequence (chain, [35S]-methionine labelled) with A335K, W398A

Measured: binding

B1: KREPA2 (natural protein)
chain: MYRRFFRSAAVKHLGTTSAQCLMRATKYPCGAMCRNASSCHPQTLGYQQRFQSTTDKKFHCSVCKKPFRLEMAAKLHLQQAHGGDGSVEAGPGPGVEASSVNVVSTPVPSPISPVERTFVDEEERRPRRMRPTPKPLHQPDRDIPAAAMEEMLGVWDKIGLNRLEGNFVHSTMVMKVFAAPPDVSEIPLYEHVAPEGENPFDSLDHMTTGTVDATYVGHDAFAEVDLVDPFVAAPDQTLNPFRAGKVRNPFTRISPTQREVVKPLQPPQPKEEPLKAPVTPFGQLPMFGQTREPSASFAAAAVSVQAAANPNEVSSPFAAAVSSSPFVGQVASPFAPAQDVAGSPFEASPCAASSPFVTAGGQETSPFAAPSTPASFGQGSLFPPMGTGAPGFTAITETEQRQQELEHGCPTCGKKFSTFEGAAMHSKSKHGIVLESKKVKDRLNRKGVPDLPAYVPSPVDLSSTSPFGTRSAIGASWAETELIPHAQCVSNITIVGRVLDVSQASENVSHVTVFVEGERSGEEETLTLCCFGEVSQKIRGTLKRNATIFASGTLRLHPVYEASNNKYYVSPVVHVSMPTGTLAVIT
modifications: [35S]-methionine labelled
notes: KREPA2 of T. brucei, the KREPA2 open reading frame, expressed untagged (63 kDa); source: in vitro translated (TNT reticulocyte lysate coupled transcription and translation system, Promega)
binds: all assays above
